These are yes or no findings as the source states them, for the method shown. Binding seen in cells or lysates may run through a third protein. Some results given as binding are weak or reduced against the parent protein; the word gives no strength.
Assays:
[1] = biological target: Ctf3 complex, trimeric assembly of Ctf3, Mcm16 and Mcm22 (all 6His-tagged) (S. cerevisiae) (UniProt Q12748+Q12262+P47167); test: pull-down; 35S-labelled in vitro translated DDK (10 μl translation mix) with equal molar amounts of purified 6His-tagged Ctf19 complex proteins; Ni-NTA beads; 30mM Tris pH 8, 30mM imidazole, 150mM NaCl, 0.05% NP-40 substitute, 10% glycerol, 2mM β-mercaptoethanol; on ice; SDS-PAGE and …; only the target purified
[2] = biological target: Ctf19-Mcm21 dimer, unmodified recombinant (Ctf19; 6His-Mcm21) (S. cerevisiae) (UniProt Q02732+Q06675); test: as above

Sequences of proteins named here, by UniProt entry; tags and fusion partners are left off. A change or cut given only in a name is not applied to a line headed by its entry.
UniProt Q12748: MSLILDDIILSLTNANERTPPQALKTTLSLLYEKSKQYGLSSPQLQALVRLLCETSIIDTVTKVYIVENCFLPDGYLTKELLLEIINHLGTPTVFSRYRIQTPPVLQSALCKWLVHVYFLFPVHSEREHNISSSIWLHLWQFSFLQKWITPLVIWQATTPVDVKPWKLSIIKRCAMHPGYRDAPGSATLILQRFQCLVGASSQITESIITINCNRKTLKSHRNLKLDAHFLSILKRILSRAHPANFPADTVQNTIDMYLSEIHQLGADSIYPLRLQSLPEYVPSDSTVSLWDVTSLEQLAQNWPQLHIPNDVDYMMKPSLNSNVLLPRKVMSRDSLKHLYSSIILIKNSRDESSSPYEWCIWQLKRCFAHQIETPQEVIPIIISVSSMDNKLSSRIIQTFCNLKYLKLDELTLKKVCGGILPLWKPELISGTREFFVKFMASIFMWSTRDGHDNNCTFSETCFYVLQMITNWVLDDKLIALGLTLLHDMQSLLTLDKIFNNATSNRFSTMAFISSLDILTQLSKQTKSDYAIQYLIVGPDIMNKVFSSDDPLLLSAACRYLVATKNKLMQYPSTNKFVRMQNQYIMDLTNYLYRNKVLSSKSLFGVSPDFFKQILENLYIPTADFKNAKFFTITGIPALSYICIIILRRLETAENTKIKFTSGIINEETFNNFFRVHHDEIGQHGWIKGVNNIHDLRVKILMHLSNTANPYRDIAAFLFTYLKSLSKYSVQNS
UniProt Q12262: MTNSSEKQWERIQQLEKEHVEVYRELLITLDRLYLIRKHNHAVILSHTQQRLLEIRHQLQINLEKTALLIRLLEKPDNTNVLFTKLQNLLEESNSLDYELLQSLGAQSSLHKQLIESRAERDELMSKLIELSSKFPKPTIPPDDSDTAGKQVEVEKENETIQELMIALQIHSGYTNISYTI
UniProt P47167: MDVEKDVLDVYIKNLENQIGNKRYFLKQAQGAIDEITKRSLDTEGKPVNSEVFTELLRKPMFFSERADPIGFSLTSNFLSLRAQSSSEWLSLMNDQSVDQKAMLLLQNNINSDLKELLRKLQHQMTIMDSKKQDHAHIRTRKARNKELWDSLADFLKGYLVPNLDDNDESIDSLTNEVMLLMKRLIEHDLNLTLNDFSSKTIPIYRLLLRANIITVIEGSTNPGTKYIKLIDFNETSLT
UniProt Q02732: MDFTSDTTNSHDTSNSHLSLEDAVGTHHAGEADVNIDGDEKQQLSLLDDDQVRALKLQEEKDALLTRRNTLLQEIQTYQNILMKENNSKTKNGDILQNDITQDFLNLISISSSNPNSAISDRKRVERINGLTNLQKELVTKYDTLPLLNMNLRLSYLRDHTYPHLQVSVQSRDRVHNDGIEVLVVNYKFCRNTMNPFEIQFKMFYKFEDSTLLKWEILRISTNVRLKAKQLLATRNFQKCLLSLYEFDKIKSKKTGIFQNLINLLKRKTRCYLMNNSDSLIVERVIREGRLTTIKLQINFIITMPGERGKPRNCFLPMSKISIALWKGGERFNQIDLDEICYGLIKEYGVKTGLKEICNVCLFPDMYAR
UniProt Q06675: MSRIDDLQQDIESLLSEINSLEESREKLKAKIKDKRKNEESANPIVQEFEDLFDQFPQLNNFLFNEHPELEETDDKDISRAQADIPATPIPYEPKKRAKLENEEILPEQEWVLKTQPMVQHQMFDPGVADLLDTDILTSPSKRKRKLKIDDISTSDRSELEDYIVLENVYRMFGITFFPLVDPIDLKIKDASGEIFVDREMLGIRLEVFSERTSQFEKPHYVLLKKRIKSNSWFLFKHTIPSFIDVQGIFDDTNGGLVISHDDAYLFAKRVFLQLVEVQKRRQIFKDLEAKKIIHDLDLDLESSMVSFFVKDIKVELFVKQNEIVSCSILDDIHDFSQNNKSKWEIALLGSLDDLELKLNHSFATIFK
UniProt P06243: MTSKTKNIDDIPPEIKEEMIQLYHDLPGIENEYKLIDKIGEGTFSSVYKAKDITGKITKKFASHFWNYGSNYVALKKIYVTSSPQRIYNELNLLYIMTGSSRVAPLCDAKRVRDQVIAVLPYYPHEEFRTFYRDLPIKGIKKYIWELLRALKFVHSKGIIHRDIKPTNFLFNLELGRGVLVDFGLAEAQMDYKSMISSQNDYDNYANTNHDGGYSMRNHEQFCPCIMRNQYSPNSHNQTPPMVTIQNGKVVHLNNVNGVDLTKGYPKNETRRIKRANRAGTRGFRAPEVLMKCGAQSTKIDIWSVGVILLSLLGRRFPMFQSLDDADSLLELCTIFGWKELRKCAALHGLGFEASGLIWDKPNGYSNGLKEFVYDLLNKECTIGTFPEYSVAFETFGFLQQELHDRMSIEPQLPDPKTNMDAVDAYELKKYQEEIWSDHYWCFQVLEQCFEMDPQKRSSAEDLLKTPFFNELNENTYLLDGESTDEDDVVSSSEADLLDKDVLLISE

- binding [1]: binds
- binding [2]: binds
Substance: Dbf4-dependent kinase (DDK), Dbf4 and Cdc7 translated in vitro together (from UniProt P06243 1-507; P32325 1-704) (complex)
